Assay results: patent publication US20160060326A1
Results are given in words; binding and its absence hold for the method and conditions named. Some entries that bind do so weakly or less than the wild type.

Amino acid sequences for entries named in this document (tags omitted). Residues count along the entry.
UniProt P13794, residues 25-350: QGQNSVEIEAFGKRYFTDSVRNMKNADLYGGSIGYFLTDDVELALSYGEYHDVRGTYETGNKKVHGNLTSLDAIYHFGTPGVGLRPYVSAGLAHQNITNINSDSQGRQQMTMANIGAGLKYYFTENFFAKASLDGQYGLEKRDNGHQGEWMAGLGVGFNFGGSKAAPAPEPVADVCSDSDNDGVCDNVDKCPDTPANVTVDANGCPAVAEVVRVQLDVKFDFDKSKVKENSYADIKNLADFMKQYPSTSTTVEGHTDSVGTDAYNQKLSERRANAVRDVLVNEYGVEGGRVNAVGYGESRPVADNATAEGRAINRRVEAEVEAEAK

B1: OIE12 (antibody, V domains shown)
VH: EVQLLESGGGLVQPGRSLRLSCTASGFTFGDYAMSWFRQAPGKGLEWVSVIYSGGSTYYADSVKGRFTISRHNSKNTLYLQMNSLRAEDTAVYYCARGYGIDYWGQGTLVTVSS
VL: QSVVTQPPSVSAAPGQRVTISCSGSSSNIENNYVSWYQQLPGTAPKLLIYDNNKRPSGIPDRFSGSKSGTSATLGITGLQTGDEADYYCGTWDSSLSTEVFGGGTKLTVL
B2: OIF9 (antibody, V domains shown)
VH: QVQLVESGAEVKKPGASVKVSCKASGYTFTSYGISWVRQAPGQGLEWMGWISAYNGNTNYAQKLQGRVTMTTDTSTSTAYMELRSLRSDDTAVYYCARELGLDAFDIWGQGTMVTVSS
VL: QSVVTQPPSVSAAPGQKVTISCSGSSSNIGNNYVSWYQQLPGTAPKLLIYDNNKRPSGIPDRFSGSKSGTSATLGITGLQTGDEADYYCGTWDSSLSAVVFGGGTKLTVL
B3: OIE9 (antibody, V domains shown)
VH: QVQLQQWGAGLLKPSETLSLTCAVYGGPFRSYYWSWIRQPPGKGLEWIGEINHSGSTNYNPSLKSRVTISVDRSKNQFSLKLTSVTAADTAVYYCAREGDHEAFDIWGQGTMVTVSS
VL: QPVLTQPPSVSAAPGQKVTISCSGSSSNIGNNYVSWYQQLPGTAPKLLIYDNNKRPSGIPDRFSGSKSGTSATLGITGLQTGDEADYYCGTWDSSLSSLVFGGGTKLTVL
B4: OIF10 (antibody, V domains shown)
VH: QVQLVQSGGGLVQPGGSLRLSCAASGFTVNSNHMSWVRQAPGKGLEWVSLIYNGDNTYYADSVKGRFTISRDNPKNTLYLQMNRLRDEDTAVYYCARDWGYNVGDWGQGTLVTVSS
VL: QSVLTQPASVSGSPGQSITISCTGTSSDVGGYNYVSWYQQHPGKAPKLMIYDVSNRPSGVSNRFSGSKSGNTASLTISGLQAEDEADYYCSSYAGSNNPYVFGTGTKVTVL
B5: OIH5 (antibody, V domains shown)
VH: QVQLVQSGGGLVQPGGSLRLSCAASGFTVNSNHMSWVRQAPGKGLEWVSLIYNGDNTYYADSVKGRFTISRDNPKNTLYLQMNRLRDEDTAVYYCARDWGYNVGDWGQGTLVTVSS
VL: QSVLTQPPSASGTPGQRVTISCSGSNSNIGTNTVNWYQQVPGTAPKLLIHGNDQRPSGVPDRFSGSKSDTSASLAITGLQSDDDADYYCSAWDDSLNADVFGGGTKLTVL
B6: OIG11 (antibody, V domains shown)
VH: QVQLVQSGGGLLQPGGSLRLSCAASGFTFSNYDMHWVRQPPGKGLEWVSSIDTAGDTYYEGSAKGRFTISRDNSANTLYLQMNSLTTEDTAVYYCAKDRIWFGDFDYWGQGTLVTVSS
VL: QAVLTQPASVSGSPGQSITISCTGTSSDVGGYNYVSWYQQHPGKAPKLMIYDVSKRPSGVSNRFSGSKSGNTASLTISGLQAEDEADYYCSSYTSSSTLYVFGTGTKLTVL
B7: OIG2 (antibody, V domains shown)
VH: QVQLVQSGGGLVQPGGSLRLSCAASGFTVNSNHMSWVRQAPGKGLEWVSLIYNGDNTYYADSVKGRFTISRDNPKNTLYLQMNRLRDEDTAVYYCARDWGYNVGDWGQGTMVTVSS
VL: QSALTQPASVSGSPGQSITISCTGTSSDVGGYNYVSWYQQHPGKAPKLMIYDVSKRPSGVSNRFSGSKSGNTASLTISGLQAEDEADYYCSSYTSSSTPHYVFGTGTKVTVL
B8: OIG1 (antibody, V domains shown)
VH: EVQLVESGAEVKKPGSSVKVSCKASGYTFTNYDINWVRQATGQGLEWMGWMNPNSGNTGYAQKFQGRVTMTRDTSISTAYMELSSLKSEDTAVYYCARDDYYDFDSWGQGTLVTVSS
VL: QSVVTQPPSVSAAPGQKVTISCSGSSSNIGKNYVSWYQHFPGTAPKLLIYDNDERPSGIPDRFSGSKSGTSATLGITGLQTGDEADYYCGAWDISLSAWVFGGGTKLTVL
B9: OIH3 (antibody, V domains shown)
VH: QVQLVQSGGGLVQPGGSLRLSCAASGFTVSSNHMAWVRQAPGKGLEWVSLIYNGDSTYYPDSVKGRFTISRDNSKNALYLQMNSLRAEDTAVYYCARDWGYDTADWGQGTLVTVSS
VL: QPVLTQPASVSGSPGQSIAISCSGTSSDIGTYDSVSWYQQHPGKAPKVIIYEVDKRPSGVPDRFSGSKSGNTASLTVSGLQAEDEADYYCSSYAGSNNFVFGTGTKLTVL
B10: OID8 (antibody, V domains shown)
VH: QVQLVQSGAEVKKPGSSVKVSCKASGGTFSSYAISWVRQAPGQGLEWMGEIIPIFGTTNYAQKFQGRVTIIADESTSTAYMELSSLRPDDTAVYYCASASSWYEWYFDVWGRGTLVTVSS
VL: QSVLTQPRSVSGSPGQSVTISCTGTSSDVGGYNYVSWYQQHPGKAPKLMIYDVGKRPSGVPDRFSGSKSGNTASLTISGLQAEDEADYYCSSYTSSGTQVFGTGTKLTVL
B11: OIG12 (antibody, V domains shown)
VH: QVQLVQSGGGLVQPGGSLRLSCAASGFTFSSYEMNWVRQAPGKGLEWVSYISSSGSTIYYADSVKGRFTISRDNAKNSLYLQMNSLRAEDTAVYYCAREGQLLWAPFDYWGQGTLVTVSS
VL: QAVLTQPPSVSGAPGQRVTISCTGSNSNIGAGYDVHWYQQLPGTAPKLLIYGNTNRPSGVPDRFSGSKSGTSASLAITGLQAEDEADYYCQSYDSRLSAVFGGGTKVTVL
B12: OIF6 (antibody, V domains shown)
VH: QVQLQQWGAGLLKPSETLSLTCAVYGGSFSGYYWSWIRQTPGKGLEWIGEINHSGSTNYNPSLKSRVTISADTSRNQFSLRLSSVTAADTAVYYCARGDSGFGVVSSYYFDQWGQGTLVTVSS
VL: SYELMQPPSESVAPGQTAKITCGGENIGSKSVHWYQQKSGQAPLLVVYDDRDRPSGIPERFFGSNSGDTASLTISGVEAGDEADYYCQVWDSRNDRVVFGGGTKLTVL
B13: OIH10 (antibody, V domains shown)
VH: EVQLVESGGGLVQPGGSLRLSCAASGFTGSNNYMSWVRQAPGKGLEWVSIIYSGGNAYYADSVKGRFTISRDNSKNILYFQMNSLRVEDTAVYYCAEGYGGVDYWGQGTLVTVSS
VL: QSVVTQPPSVSAAPGQKVTISCSGSSSNIGSNSVSWFQHLPGTAPKLLIYDNNQRPSNIPDRFSGSKSGASATLGITGLQTGDEADYYCGTWDHRLNTYVFGTGTKVTVL
B14: OIA10 (antibody, V domains shown)
VH: QVQLVQSGAEVKKPGASVKVSCKASGYTFTSYYMHWVRQAPGQGLEWMGIINPSGGSTSYAQKFQGRVTMTRDTSTSTVYMELSSLRAEDMAVYYCAREGLPDAFDIWGQGTMVTVSS
VL: QAGLTQPASVSGSPGQSITLSCTGTSSDVGGYNYVTWFQQHPGKAPKLMIYDVSKRPSGASNRFSGSKSGNTASLTISGLQAEDEADYYCSSYTSSGTYVFGTGTKLTVL
B15: OFH10 (antibody, V domains shown)
VH: QVQLVESGGGLIQPGGSLRLSCAASGFTVSSNYMSWVRQAPGKGLEWVSVIYSGGTKYYADSVKGRFTISRDNSKNTLYLQMNSLRAEDTAVYFCARGDDAFDIWGQGTMVTVSS
VL: QSVLTQPASVSGSPGQSITISCTGTSSDVGGYNYVSWYQQHPGKAPKLMIYDVSNRPSGVSNRFSGSKSGNTASLTISGLQAEDEADYYCSSYTSSNTIVFGSGTKVTVL
B16: OFA1 (antibody, V domains shown)
VH: EVQLVQSGAEMKKPGSSVKVSCKASGDTFSNYNFNWVRQAPGQGLEWMGGITPIFGAAQYAQKFQDRVTIIADESTSTAYMELRSLRSDDTAVYYCAGGWAGFCSSASCYRFDYWGQGTTVTVSS
VL: SYELTQPPSVSAAPGQKVTISCSGSSSNIGNYYVSWYQQLPGTAPKLLIYDNDKRPSGIPDRFSASKSGTSASLAITGLQAEDEADYYCQSYDRTLSGGILGTGTKLTVL
B17: OFG5 (antibody, V domains shown)
VH: QVQLVQSGAEVKKPGASVKVSCKASGYTFTGYYMHWVRQAPGQGLEWMGWINPNSGGTNYAQKFQGRVTITRDTSASTAYMELSSLRSEDTAVYYCATLGGAAAGLNTDYWGQGTLVTVSS
VL: SYELMQPASVSGSPGQSITISCTGTSSDVGGYNYVSWYQQHPGKAPKLMIYDVSNRPSGVSNRFSGSKSGNTASLTISGLQAEDEADYYCSSYTSSSTRVFGTGTKVTVL
B18: OFC7 (antibody, V domains shown)
VH: QVQLVVSGDEVKKPGASVKVSCKASGYTFTSYDINWVRQAPGQGLEWLGWMSPNSGNTDYAEKFQGRVTMTRDTSITTAYMELSSLASEDTAVYYCARGVAAGLDYWGQGTLVTVSS
VL: LPVLTQSASVSGSPGQSITISCTGTSTDVDYSNYVSWYQHHPGKAPKLMIYDVSRRPSGVSNRFSGSKSGNTASLTISGLQAEDEADYYCSSYTSGTTLVFGGGTKVTVL

Molecular target: OprI (Pseudomonas aeruginosa) (UniProt P11221)
Assay: ELISA, Example 1 (FIG. 1)

binding, binds:
B1, B2, B3, B4, B5, B6, B7, B8, B9, B10, B11, B12, B13, B14

Molecular target: OprF (Pseudomonas aeruginosa) (UniProt P13794)
Assay: ELISA, Example 1 (FIGS. 2 and 3)

binding, binds:
B15, B16, B17, B18
